{
  "source": "paper PMC10725505",
  "about": "“Molecular forms of BMP15 and GDF9 in mammalian species that differ in litter size” (Scientific Reports, 2023)",
  "target": "T1, recombinant human (h)BMPR2 ectodomain (human) (UniProt Q13873)",
  "T1 sequence (chain, N-biotinylated using EZ-Link sulfo-NHS-LC-biotin (1,1.2 molar ratio))": "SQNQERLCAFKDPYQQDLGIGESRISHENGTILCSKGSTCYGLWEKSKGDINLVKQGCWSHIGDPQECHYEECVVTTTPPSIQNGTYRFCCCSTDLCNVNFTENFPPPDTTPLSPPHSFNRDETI",
  "experiment": "SPR; ProteOn XPR36; biotinylated hBMPR2 captured (~200 RU) on a streptavidin-coated GLC chip; log2 serial dilutions of partially purified (dialysed, concentrated) 293H-secreted GDF9 or BMP15 as analytes; 25 °C, 100 µl/min; 10 mM HEPES, 500 mM NaCl, 3.4 mM EDTA, 0.005% Tween 20; association 120 s; analyte concentrations not known; only the target purified",
  "note": "No constants are given. Whether binding was seen depends on the method and setting. Binding can be weak; no strength is given.",
  "data": [
    {"substance": "recombinant red deer GDF9 (ligand)", "values": [
      {"measurement": "binding", "result": "binds"}
    ]}
  ]
}
